Values from PubChem BioAssay AID1224830 (NIAID, 2016)

- Purpose: 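Genes whose knock-down alters the TNF-alpha reporter response to LPS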 (primary screen)
- Cell system: human THP-1 monocytic leukaemia cells, TNF dual-luciferase reporter clone, PMA-differentiated to macrophage-like cells
- Knock-down reagent: siRNA pool against human genes, 50 nM
- Duration: LPS for 4 h, given about 3 days after siRNA transfection
- Conditions: bacterial LPS (TLR4 ligand), 10 ng/ml
- Read-out: 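TNF firefly reporter luminescence divided by renilla, normalised to the plate median, then turned into a robust z-score for each replicate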
- Direction: TNF reporter robust z-score: higher = stronger TNF reporter response to LPS
- Rule for the call: 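Each well counts as active if its z-score is over 2.8 or under -1.5; controls are left without a call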
Shown is a random part of about 18,000 reagents. Over the whole deposit, about 2,900 (16%) were called active. 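Calls are made per well; low scores hint the gene aids the LPS response, high scores that it dampens it.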 Repeated entries: four replicate wells of each siRNA pool.

ADGRG4 scored TNF reporter robust z-score -0.93; inactive. Knock-down of ADGRG4 came out at: TNF reporter robust z-score -0.1; inactive. Against ADGRG4 the deposit lists TNF reporter robust z-score -0.79; inactive. With knock-down of ADGRG4, the screen gave TNF reporter robust z-score -0.38; inactive. STIMATE gave TNF reporter robust z-score 4.06; active. STIMATE gave TNF reporter robust z-score 14.1; active.

Silencing of STIMATE resulted in: TNF reporter robust z-score 1.31; inactive. After knock-down of STIMATE, the record shows TNF reporter robust z-score 0.66; inactive. Knock-down of SMAD2 gave: TNF reporter robust z-score 0.18; inactive. SMAD2 scored TNF reporter robust z-score 0.81; inactive. SMAD2 showed TNF reporter robust z-score 0.28; inactive. Depletion of SMAD2 came out at: TNF reporter robust z-score 1.77; inactive.

For ARRDC1 the deposit lists TNF reporter robust z-score 1.4; inactive. Knock-down of ARRDC1 came out at: TNF reporter robust z-score 1.32; inactive. Against ARRDC1, the entry reads TNF reporter robust z-score 2.9; active. For ARRDC1, the entry reads TNF reporter robust z-score 0.44; inactive. Silencing of KRABD2 came out at: TNF reporter robust z-score 1.36; inactive. Knock-down of KRABD2 resulted in: TNF reporter robust z-score 1.39; inactive.

KRABD2 scored TNF reporter robust z-score 0.57; inactive. Depletion of KRABD2 gave: TNF reporter robust z-score 1.54; inactive.
